Results from paper PMC3994006.
No constants are given. Whether binding was seen depends on the method and setting. Binding seen in cells or lysates may run through a third protein. Some entries that bind do so weakly or less than the wild type. Where a sequence is shown, tags or fusion partners need not be part of it. Values belong to the molecule of their own block, whether it stands above or below them.

The chains behind the UniProt entries cited, without tags or fusion partners.
UniProt Q9QZL0: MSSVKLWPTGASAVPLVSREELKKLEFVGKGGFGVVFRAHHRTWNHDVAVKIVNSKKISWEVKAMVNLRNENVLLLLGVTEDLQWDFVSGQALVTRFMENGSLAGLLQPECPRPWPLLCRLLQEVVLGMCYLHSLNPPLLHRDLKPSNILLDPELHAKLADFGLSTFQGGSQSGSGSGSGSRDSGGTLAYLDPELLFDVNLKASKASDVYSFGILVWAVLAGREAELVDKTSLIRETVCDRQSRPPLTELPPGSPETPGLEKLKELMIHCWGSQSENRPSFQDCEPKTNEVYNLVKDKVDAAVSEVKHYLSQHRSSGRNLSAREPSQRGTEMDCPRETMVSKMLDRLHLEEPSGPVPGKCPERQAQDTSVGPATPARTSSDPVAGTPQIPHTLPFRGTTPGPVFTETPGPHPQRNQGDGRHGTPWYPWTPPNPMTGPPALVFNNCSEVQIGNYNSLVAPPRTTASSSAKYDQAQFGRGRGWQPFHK
UniProt Q9DC51: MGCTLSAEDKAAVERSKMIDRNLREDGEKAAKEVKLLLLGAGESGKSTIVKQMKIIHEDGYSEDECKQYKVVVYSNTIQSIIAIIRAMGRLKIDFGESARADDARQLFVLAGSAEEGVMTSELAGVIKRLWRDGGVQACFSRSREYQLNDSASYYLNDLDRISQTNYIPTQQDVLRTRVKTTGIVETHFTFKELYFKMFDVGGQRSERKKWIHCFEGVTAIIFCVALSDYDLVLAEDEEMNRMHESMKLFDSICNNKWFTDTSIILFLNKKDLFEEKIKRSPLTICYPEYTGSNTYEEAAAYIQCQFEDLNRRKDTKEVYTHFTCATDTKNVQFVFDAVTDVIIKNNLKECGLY

Assays:
[1] = target: T1, Flag-RGS19 (UniProt Q9CX84); assay: co-IP; pairs co-expressed in 293T cells; Flag-tagged protein immunoprecipitated with anti-Flag M2-beads; Myc-tagged protein detected with anti-myc antibody by Western blotting
T1 sequence: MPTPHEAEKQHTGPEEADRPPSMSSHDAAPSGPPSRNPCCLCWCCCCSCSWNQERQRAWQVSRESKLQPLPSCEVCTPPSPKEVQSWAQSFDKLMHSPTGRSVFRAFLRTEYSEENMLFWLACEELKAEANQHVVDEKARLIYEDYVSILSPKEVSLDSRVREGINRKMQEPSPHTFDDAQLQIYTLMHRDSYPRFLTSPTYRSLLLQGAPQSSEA

[2] = target: Flag-RIP3 (UniProt Q9QZL0); assay: as above

binding [1]: binds | binding [2]: binds
Molecule: Myc-GNAI3 (from UniProt Q9DC51 1-354)

binding [2]: binds
B1: Myc-RGS19 (protein, UniProt Q9CX84 1-216)
chain: T1 sequence
